Data as given in PubChem BioAssay AID652243 (Drosophila RNAi Screening Center, 2013)
Screen: 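Fly genes required for human androgen receptor driven transcription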 (primary screen). System: Drosophila S2R+ cells. Reagents: long dsRNA against Drosophila genes. Time to read-out: 72 h (48 h, then 24 h hormone). Treatment: synthetic androgen R1881 at 10 nM for 24 h. Read-out: 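Firefly light from an androgen-responsive reporter and Renilla control light per well, raw and unnormalised, for each of two replicates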. Scale: firefly reporter light: higher = more light from androgen-responsive reporter; Renilla control light: higher = more constitutive control signal (cell number, transfection). Rule for the call: 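Hit when the log firefly-to-Renilla ratio dropped or increased by a fixed fold versus the mean of GFP or LacZ controls across duplicate plates; lowering cut given as 1.5 and as 3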. Calls: active = hit: reporter lowered or raised; inactive = no hit.
The screen tested about 24,000 reagents; this is a random part of those that have a named target and a result. Of all reagents, 246 (1%) got an active call. 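Plates not normalised; calls are printed but the firefly/Renilla ratio behind them is not deposited; fold cut for lowering reported inconsistently.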 Raw values vary from plate to plate and are shown uncorrected. A plus sign joins genes that one reagent is predicted to hit. No sequences are given here. The record does not give: the amount of reagent.

| gene knocked down | dsRNA | firefly reporter light, replicate 1 | firefly reporter light, replicate 2 | Renilla control light, replicate 1 | Renilla control light, replicate 2 | call |
| --- | --- | --- | --- | --- | --- | --- |
| VhaAC39-1 | DRSC18242 | 1.19e5 | 1.15e5 | 1.09e6 | 9.21e5 | inactive |
| VhaAC39-1 | DRSC27608 | 2.35e5 | 2.37e5 | 6.58e5 | 8.31e5 | inactive |
| CG11333 | DRSC14301 | 3.44e5 | 3.73e5 | 2.90e6 | 4.05e6 | inactive |
| Cyp28c1 | DRSC20236 | 2.98e5 | 3.29e5 | 4.17e6 | 3.04e6 | inactive |
| CG9590 | DRSC16506 | 1.16e5 | 1.21e5 | 6.50e5 | 7.10e5 | inactive |
| Zasp66 | DRSC08932 | 1.74e5 | 63463 | 1.60e5 | 73227 | inactive |
| Zasp66 | DRSC10631 | 1.37e6 | 1.05e6 | 2.08e6 | 2.20e6 | inactive |
| Zasp66 | DRSC10632 | 3.22e5 | 2.94e5 | 2.40e6 | 2.73e6 | inactive |
| tal-1A + tal-2A + tal-AA + 1 more | DRSC12992 | 93829 | 76919 | 90531 | 2.26e5 | inactive |
| CG4658 | DRSC02768 | 91872 | 1.02e5 | 6.55e5 | 1.01e6 | inactive |
| Klp59C | DRSC04348 | 2.78e5 | 3.58e5 | 2.01e6 | 2.05e6 | inactive |
| Klp59C | DRSC24637 | 3.11e5 | 3.24e5 | 2.88e5 | 3.92e5 | inactive |
| Antdh | DRSC20307 | 5.30e5 | 3.91e5 | 3.19e6 | 3.52e6 | inactive |
| Antdh | DRSC25689 | 7.89e5 | 1.12e6 | 1.02e6 | 1.19e6 | inactive |
| MsrA | DRSC11159 | 2.67e5 | 1.78e5 | 2.50e6 | 1.59e6 | inactive |
| CG31624 | DRSC02617 | 9.36e5 | 8.88e5 | 2.51e6 | 2.55e6 | inactive |
| SNF4Agamma | DRSC13461 | 67331 | 24208 | 1.83e5 | 98499 | inactive |
| SNF4Agamma | DRSC13463 | 5.79e5 | 6.04e5 | 1.80e6 | 2.00e6 | inactive |
| SNF4Agamma | DRSC15879 | 2.47e5 | 2.57e5 | 2.97e6 | 3.16e6 | inactive |
| SNF4Agamma | DRSC16847 | 49292 | 43815 | 5.79e5 | 4.71e5 | inactive |
| SNF4Agamma | DRSC37038 | – | – | – | – | inactive |
| hebe | DRSC05192 | 3.15e5 | 1.63e5 | 2.03e5 | 2.19e5 | inactive |
| hebe | DRSC06605 | 5.25e5 | 3.25e5 | 4.65e6 | 3.81e6 | inactive |
| hebe | DRSC21614 | 9.42e5 | 1.10e6 | 2.34e6 | 2.46e6 | inactive |
| hebe | DRSC24505 | 1.18e6 | 8.54e5 | 6.74e5 | 5.91e5 | inactive |
| Gdap1 | DRSC10437 | 1.40e5 | 1.87e5 | 1.45e6 | 1.61e6 | inactive |
| Gdap1 | DRSC28286 | 5.42e5 | 7.76e5 | 1.00e6 | 1.81e6 | inactive |
| rig | DRSC06053 | 1.03e6 | 8.48e5 | 1.34e6 | 9.08e5 | inactive |
| rig | DRSC06400 | 39560 | 84465 | 7.69e5 | 8.78e5 | inactive |
| CG3961 | DRSC10390 | 14728 | 36502 | 1.80e5 | 1.79e5 | inactive |
| CG3961 | DRSC10391 | 2.70e5 | 4.18e5 | 3.33e6 | 4.70e6 | inactive |
| CG11164 | DRSC19392 | 5.84e5 | 6.12e5 | 3.28e6 | 3.26e6 | inactive |
| lqf | DRSC11363 | 1.23e6 | 7.79e5 | 1.89e6 | 1.59e6 | inactive |
| lqf | DRSC27882 | 9.60e5 | 4.94e5 | 3.23e6 | 2.02e6 | inactive |
| CG18596 | DRSC15355 | 53408 | 78503 | 4.83e5 | 4.91e5 | inactive |
| wda | DRSC15579 | 4.94e5 | 4.69e5 | 2.82e6 | 2.92e6 | inactive |
| wda | DRSC22351 | 9.01e5 | 9.65e5 | 2.86e5 | 2.55e5 | inactive |
| nac | DRSC16520 | 1.23e5 | 1.41e5 | 2.76e6 | 1.99e6 | inactive |
| CG2076 | DRSC19832 | 4.16e5 | 4.15e5 | 2.75e6 | 2.98e6 | inactive |
| CG2076 | DRSC27047 | 4.45e5 | 3.21e5 | 7.78e5 | 5.94e5 | inactive |
